Not every detail of the peptide structures is certain; ends, links or a residue may be inferred. Ends that are not written are not given here.
System: TCC14
Experiment: Co-cultivation of TCC14, monocytes and peptide-coupled RBCs (IFN-γ/IL-10/IL-17 fluorospot assay)
Format: cell-based, human
Settings: samples with soluble peptide, 10 µM; 48 hours

LVRYWISAFPAEFDL [RASGRP2 78-92, LVRYWISAFPAEFDL]
IL-10 secretion: robust secretion of IL-10

Reference: patent EP4553083A1, “PEPTIDES AND THEIR USE FOR THE TREATMENT AND/OR PREVENTION OF MULTIPLE SCLEROSIS” (Cellerys AG, priority 2023, dated 2025)
